{
  "source": "PubChem BioAssay AID540326",
  "about": "(Broad Institute, 2011)",
  "assay": "compounds quenching DiI signal without cells – biochemical, cherry-pick samples, plate reader fluorescence, artefact control for SR-BI HDL uptake inhibitor project, dose response (AID 540326)",
  "details": "cell-free DiI-HDL fluorescence quenching, 30 min; at 35 µM (top of the series)",
  "note": "All entries are inconclusive by the source's own rule. Clear calls are listed elsewhere.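 The calls were made as follows: active = quenching, a falling signal, with AC50 below a set limit tied to the top valid dose (actives reach about 32 µM in these data); inconclusive = no clear call, values can overlap the other calls; inactive = rising signal, and the rest.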",
  "data": [
    {"smiles": "Cc1ccc(-n2nc(C)c3c(C(=O)OCC(=O)N(C)C4CCS(=O)(=O)C4)cc(-c4ccccc4)nc32)cc1", "note": "(stereo unspecified)", "values": [
      {"measurement": "activity change, negative = quenching", "result": "inconclusive: 23%"}
    ]}
  ]
}
